The target of this test is GFP-Atg5 (autophagy related gene 5). The test is described as follows: affinity purification with mass spectrometry; GS cells transfected with pEGFP-C1, pEGFP-LC3 or pEGFP-Atg5 and then infected with SGIV; whole cell lysates precipitated with GFP antibody; IP products analysed by RPLC-MS.

No constants are given. Whether binding was seen depends on the method and setting. In cells and extracts the contact can be indirect. These calls come from enrichment with a bait or labelling near it, and not all partners need be listed.

B1: SGIV ORF132 (VP132), expressed by the infecting virus (protein, UniProt Q5YFD3 1-275)
chain: MHSVKSLLVDISKWELNASAQEYVAHVETAESPATMGKRPKVKRVSKRPVCELLPPYVDESIRRSVGSIYHAHWPKDRLRPTVEKQAVLVGLITRSNPELDVNELVKTMRVKCDRLKKGAREAEKVSHLLPAPWAQPAWSKEIPDMSKALKVLGESEGRKWACWAQSVTCIGVAICSKQHEKPFRSVWKDTLEKLRRYAPAALLRSEYGSVFFTLCVPLLAEMTGAPPQHRPLEWWAETCASIGHELVRSTVQGAYLKHDKDLLRRMVYTRYFEK
With B1, the binding entry is on record as “binds”.

B2: SGIV ORF122 (VP122), expressed by the infecting virus (protein, UniProt Q5YFE3 1-210)
chain: MAPGKRIVLKNNPRGGVWQGPIPNDKWVSEIMPWASDLGKRLLVLTEDVIAKLTWTHMGARVSDFASVRWPSVEDDYIWIDEPTEEWLRSRKVISWPVRVMWIKTSKEGKLPAQLDALAKKLSGFDDYAKLDTLAAKIERKRFRYPSAMAVVAKHHHKKYLERQGITAHSAFELVLKHWKPEKYFFACVDLNDWTENPAVAALVKKWGLE
On to B2, for which the binding result is recorded as “binds”.

These data come from article PMC7333352.
